Laboratory results as given in PubChem BioAssay AID188 (DTP/NCI, 2004).
Shown are survivors of the treated group in tumour-free mice. Survivors were counted at the toxicity check, usually on the fifth day, unless a day is given; later deaths do not show. Schedule codes are those of the source, taken here to give the interval after Q, in days (D) or hours (H), and the number of doses after X.

System: CD2F1 mice, nontumored, toxicity/survival
Test: NCI In Vivo Anticancer Drug Screen. Data for tumor model Nontumored Animals (Toxicity Test) in CD2F1 (CDF1) mice
[1] = dose: 1.0 mg/kg/injection, schedule: Q01DX001 (ip), vehicle: water
[2] = dose: 10.0 mg/kg/injection, schedule: Q01DX001 (ip), vehicle: water
[3] = dose: 100.0 mg/kg/injection, schedule: Q01DX001 (ip), vehicle: water

CN(C)c1nc(N(C)C)nc(N(C)C)n1
survivor count (dose: 8.0 mg/kg/injection, schedule: Q03HX024 (ip), vehicle: Klucel (hydroxypropylcellulose) (HPC)): 8 of 8 | survivor count (dose: 16.0 mg/kg/injection, schedule: Q03HX008 (ip), vehicle: Klucel (hydroxypropylcellulose) (HPC)): 8 of 8 | survivor count (dose: 16.0 mg/kg/injection, schedule: Q03HX016 (ip), vehicle: Klucel (hydroxypropylcellulose) (HPC)): 8 of 8 | survivor count (dose: 16.0 mg/kg/injection, schedule: Q03HX024 (ip), vehicle: Klucel (hydroxypropylcellulose) (HPC)): 8 of 8 | survivor count (dose: 32.0 mg/kg/injection, schedule: Q01DX009 (ip), vehicle: Klucel (hydroxypropylcellulose) (HPC)): 8 of 8 | survivor count (dose: 32.0 mg/kg/injection, schedule: Q03HX008 (ip), vehicle: Klucel (hydroxypropylcellulose) (HPC)): 8 of 8 | survivor count (dose: 32.0 mg/kg/injection, schedule: Q03HX016 (ip), vehicle: Klucel (hydroxypropylcellulose) (HPC)): 8 of 8 | survivor count (dose: 32.0 mg/kg/injection, schedule: Q03HX024 (ip), vehicle: Klucel (hydroxypropylcellulose) (HPC)): 8 of 8 | survivor count (dose: 64.0 mg/kg/injection, schedule: Q01DX009 (ip), vehicle: Klucel (hydroxypropylcellulose) (HPC)): 8 of 8 | survivor count (dose: 64.0 mg/kg/injection, schedule: Q03HX008 (ip), vehicle: Klucel (hydroxypropylcellulose) (HPC)): 7 of 8 | survivor count (dose: 64.0 mg/kg/injection, schedule: Q03HX016 (ip), vehicle: Klucel (hydroxypropylcellulose) (HPC)): 8 of 8 | survivor count (dose: 64.0 mg/kg/injection, schedule: Q03HX024 (ip), vehicle: Klucel (hydroxypropylcellulose) (HPC)): 8 of 8 | survivor count (dose: 64.0 mg/kg/injection, schedule: Q04DX003 (ip), vehicle: Klucel (hydroxypropylcellulose) (HPC)): 8 of 8 | survivor count (dose: 128.0 mg/kg/injection, schedule: Q01DX001 (ip), vehicle: Klucel (hydroxypropylcellulose) (HPC)): 8 of 8 | survivor count (dose: 128.0 mg/kg/injection, schedule: Q01DX009 (ip), vehicle: Klucel (hydroxypropylcellulose) (HPC)): 8 of 8 | survivor count (dose: 128.0 mg/kg/injection, schedule: Q03HX008 (ip), vehicle: Klucel (hydroxypropylcellulose) (HPC)): 0 of 8 | survivor count (dose: 128.0 mg/kg/injection, schedule: Q03HX016 (ip), vehicle: Klucel (hydroxypropylcellulose) (HPC)): 0 of 8 | survivor count (dose: 128.0 mg/kg/injection, schedule: Q03HX024 (ip), vehicle: Klucel (hydroxypropylcellulose) (HPC)): 0 of 8 | survivor count (dose: 128.0 mg/kg/injection, schedule: Q04DX003 (ip), vehicle: Klucel (hydroxypropylcellulose) (HPC)): 8 of 8 | survivor count (dose: 128.0 mg/kg/injection, schedule: Q08DX002 (ip), vehicle: Klucel (hydroxypropylcellulose) (HPC)): 8 of 8 | survivor count (dose: 256.0 mg/kg/injection, schedule: Q01DX001 (ip), vehicle: Klucel (hydroxypropylcellulose) (HPC)): 8 of 8 | survivor count (dose: 256.0 mg/kg/injection, schedule: Q01DX009 (ip), vehicle: Klucel (hydroxypropylcellulose) (HPC)): 4 of 8 | survivor count (dose: 256.0 mg/kg/injection, schedule: Q04DX003 (ip), vehicle: Klucel (hydroxypropylcellulose) (HPC)): 8 of 8 | survivor count (dose: 256.0 mg/kg/injection, schedule: Q08DX002 (ip), vehicle: Klucel (hydroxypropylcellulose) (HPC)): 8 of 8 | survivor count (dose: 512.0 mg/kg/injection, schedule: Q01DX001 (ip), vehicle: Klucel (hydroxypropylcellulose) (HPC)): 7 of 8 | survivor count (dose: 512.0 mg/kg/injection, schedule: Q01DX009 (ip), vehicle: Klucel (hydroxypropylcellulose) (HPC)): 0 of 8 | survivor count (dose: 512.0 mg/kg/injection, schedule: Q04DX003 (ip), vehicle: Klucel (hydroxypropylcellulose) (HPC)): 8 of 8 | survivor count (dose: 512.0 mg/kg/injection, schedule: Q08DX002 (ip), vehicle: Klucel (hydroxypropylcellulose) (HPC)): 8 of 8 | survivor count (dose: 1024.0 mg/kg/injection, schedule: Q01DX001 (ip), vehicle: Klucel (hydroxypropylcellulose) (HPC)): 0 of 8 | survivor count (dose: 1024.0 mg/kg/injection, schedule: Q04DX003 (ip), vehicle: Klucel (hydroxypropylcellulose) (HPC)): 0 of 8 | survivor count (dose: 1024.0 mg/kg/injection, schedule: Q08DX002 (ip), vehicle: Klucel (hydroxypropylcellulose) (HPC)): 0 of 8

Nc1nc(N)c2nc(CSc3ccc(C(=O)NC(CCC(=O)O)C(=O)O)cc3)cnc2n1 (configuration not stated)
survivor count [1]: 2 of 2 | survivor count [2]: 2 of 2 | survivor count [3]: 2 of 2

Nc1nc(N)c(N)c(/C=C/c2ccccc2)n1
survivor count [1]: 2 of 2 | survivor count [2]: 0 of 2 | survivor count [3]: 0 of 2
